Results published in paper PMC12140318.
Results are given in words; binding and its absence hold for the method and conditions named. Binding seen in cells or lysates may run through a third protein. A yes stands for co-enrichment or nearness to the bait. Other partners may have been found.

Chains of the proteins cited; added tags and fusions are not shown. Lines headed by an entry give the natural chain unless they say otherwise; changes in a name come on top.
UniProt P06702: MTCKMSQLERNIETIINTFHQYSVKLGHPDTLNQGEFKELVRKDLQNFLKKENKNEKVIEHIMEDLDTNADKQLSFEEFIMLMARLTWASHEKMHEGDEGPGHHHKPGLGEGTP
UniProt P45973: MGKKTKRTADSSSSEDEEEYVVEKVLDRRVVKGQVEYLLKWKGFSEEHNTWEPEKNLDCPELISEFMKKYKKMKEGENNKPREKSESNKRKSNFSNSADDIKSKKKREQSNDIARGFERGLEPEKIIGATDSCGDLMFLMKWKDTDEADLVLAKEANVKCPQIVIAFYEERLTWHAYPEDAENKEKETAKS

Molecular target: full-length S100A9 in the nucleus (pDC315-3NLS-S100A9-3NLS-3Flag) (human) (UniProt P06702)
Experiment: affinity purification with mass spectrometry; 500 µg total protein of hAFs with or without nuclear S100A9 overexpression in IP lysis buffer, Flag antibody-coupled beads overnight at 4 °C, elution with glycine-HCl pH 2.5, trypsin digest, LC-MS/MS (DIA)

binding: binds
Substance: CBX5 (Chromobox protein homolog 5) (from UniProt P45973 1-191)
